Usually AC50 stands for the concentration giving half of the maximal activity seen.

Structures are written as SMILES. This is one part of the list. Shown are side measurements of this screen, not its main read-out; they come without a call. Most of these compounds were active or inconclusive in the main read-out, so they are no random draw. Potencies come from curve fits of mixed quality, noted in brackets.

The experiment is described as follows: IkB Signaling. The following applies: ABC-DLBCL IkBa-CBG/CBR dual luciferase ratio (green luciferase fused to IkBa over red control in OCI-Ly3 lymphoma cells), 4 h; measured here: control luc red channel unless noted. An outline of the steps:
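Luminescence ratio of IκBα-fused green versus native red beetle luciferase in OCI-Ly3 cells, 4 h post-doxycycline with compound; red signal alone, scaled from basal (0%) to zero light (-100%), flagged nonspecific or cytotoxic effects.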
On to `NS(=O)(=O)c1ccc(NC(=O)c2ccc3c(c2)CCN3S(=O)(=O)c2ccccc2)cc1`, for which the AC50 was 25.1 µM [falling, single point].

As for `Cc1ccc(NC(=O)C(=O)NCC(c2cccnc2)N2CCN(C)CC2)cc1F` (stereo not given), the concentration at half-maximal activity (AC50) was 39.8 µM [falling, single point]. Under `CCOc1ccc(NC(=O)Cn2ccn(-c3ccc(F)c(F)c3)c(=O)c2=O)cc1` stands 39.8 µM [falling, single point]. For `COc1cccc(C(=O)Nc2ccc(-c3cn4cccnc4n3)cc2)c1OC` the value was 2.51 µM [rising, partial curve]. For `COc1cc2ccccc2cc1C(=O)Nc1ccc(Cl)c(-c2nc3ccccc3o2)c1` the value was 15.8 µM [falling, single point]. For `Cc1ccc(N2C(=O)c3[nH]nc(-c4ccc(Cl)cc4)c3C2c2ccc(F)cc2)cc1` (stereo not given), the AC50 is 25.1 µM [falling, partial curve]. Under `CCOc1cc(NS(C)(=O)=O)c(OCC)cc1NC(=O)c1cccs1` stands 25.1 µM [falling, partial curve, poor fit]; under `c1ccc(CCCc2nc(-c3ccccn3)no2)cc1`, 15.8 µM [falling, single point]; under `Cc1cc2ncn(C(=O)c3c(-c4c(Cl)cccc4Cl)noc3C)c2cc1C`, 15.8 µM [rising, partial curve] [measured here: IkB-luc green channel]. For `COc1ccc(CNC(=O)c2cc3c(s2)-c2ccccc2OC3)cc1` the value was 1.58 µM [falling, full curve]. For `CCC(C)NC(=O)C(=O)Nc1c2c(nn1-c1ccccc1)CS(=O)(=O)C2` (stereo not given) the value was 20 µM [rising, partial curve]; for `O=C(c1ccc2c(c1)N(Cc1ccc(Cl)cc1)C(=O)c1ccccc1S2(=O)=O)N1CCCCC1`, 25.1 µM [falling, single point]. In the case of `CC(C)c1ccc(C2N=C(N)Nc3nc4ccccc4n32)cc1` (stereo not given), the AC50 is 15.8 µM [falling, single point]. For `Cc1c(Cl)cccc1NC(=O)C(C)n1nnc2sc3c(c2c1=O)CCCC3` (stereo not given) the value was 1 µM [falling, full curve]; for `Cc1c(C)n(C)c2ccc(C(=O)N3CCN(c4ccccc4)CC3)cc12`, 25.1 µM [falling, partial curve]; for `CSc1ncc(Cl)c(C(=O)N(Cc2ccc(N(C)C)cc2)Cc2ccco2)n1`, 31.6 µM [falling, single point]. Under `Cc1cc(C)cc(NC(=O)Cn2c(=O)c3ccccc3n3nncc23)c1` stands 25.1 µM [falling, partial curve]; under `Cc1ccc2c(=O)cc(C(=O)Nc3ccc(S(=O)(=O)N4CCCCCC4)cc3)oc2c1C`, 15.8 µM [falling, single point]; under `CCCCOc1ccc(CNC(=O)CCCN2C(=O)CSc3c2c(C)nn3-c2ccccc2)cc1`, 25.1 µM [falling, single point]. Under `CCOC(=O)c1ccccc1NC(=O)c1sc2nc3n(c(=O)c2c1C)CCCC3` stands 25.1 µM [falling, single point]; under `CC(C)CNC(=O)c1cc(-c2ccco2)on1`, 5.01 µM [falling, partial curve]; under `Cc1noc(/C=C/N(C)C)c1S(=O)(=O)N1CCCC(C(=O)Nc2ccc3c(c2)OCO3)C1` (stereo not given), 25.1 µM [falling, partial curve]. In the case of `Cc1cccc(C2CC(=O)Oc3c2c(=O)n(C)c2ccccc32)c1` (stereo not given), the AC50 was 39.8 µM [falling, single point]. Under `O=C(Cn1c(=O)nc(-c2ccccc2)c2ccccc21)NCc1ccc(F)cc1` stands 20 µM [falling, partial curve]; under `Cc1cc(O)c(C(c2ccccc2)N2CCN(C)CC2)c(=O)n1Cc1ccco1` (stereo not given), 0.0126 µM [falling, full curve]; under `CC1=C(C(=O)N2CCN(c3cccc(C)c3C)CC2)C2(CCCCC2)OC1=O`, 15.8 µM [falling, partial curve].

For `COc1ccc(-c2noc(CN(C(C)C)S(=O)(=O)c3ccc(Br)cc3)n2)cc1`, the concentration at half-maximal activity (AC50) is 39.8 µM [falling, single point]. As for `Cc1cccc(NC2=CC(c3cccc(Br)c3)N(c3cccc(C)c3)C2=O)c1` (stereo not given), the AC50 was 5.01 µM [falling, partial curve]. For `Cc1cc(NC(=O)c2ccccc2F)n(-c2nc3ccccc3[nH]2)n1` the value was 25.1 µM [falling, partial curve]. Under `O=C(CCN1CCc2ccccc2C1)Nc1ccccc1` stands 12.6 µM [falling, partial curve]; under `CCc1ccc(NCc2cc3cc(OC)c(OC)cc3n(CC(=O)Nc3cc(C)ccc3C)c2=O)cc1`, 15.8 µM [falling, partial curve]; under `COc1ccc(C(C)n2c(C)c3c(C)nnc(C)c3c2C)cc1` (stereo not given), 15.8 µM [falling, single point]. Under `Cc1cccc(C)c1Nc1nc2ccccc2nc1NS(=O)(=O)c1ccccc1` stands 3.98 µM [falling, partial curve]. Turning to `COc1ccc(S(=O)(=O)N(CC(=O)NCc2ccccc2)c2ccc(C)cc2)cc1OC`, the AC50 was 25.1 µM [falling, partial curve, poor fit].

As to `COc1cccc(CNC(=O)CSc2ncc(S(=O)(=O)c3ccc(Br)cc3)c(=O)[nH]2)c1`, the concentration at half-maximal activity (AC50) is 20 µM [falling, partial curve]. For `Cc1ccc(-c2nnc(Nc3ccc(Cl)c(Cl)c3)c3ccccc23)cc1S(=O)(=O)NCCO`, the AC50 is 1.26 µM [falling, full curve]. For `Cc1ccc(NC(=O)C2CCCN2S(=O)(=O)c2cccc3nsnc23)cc1Cl` (stereo not given), the AC50 is 6.31 µM [falling, single point]. For `CC1CCN(S(=O)(=O)c2ccc3c(c2)CCN3C(=O)Nc2ccc(Br)cc2)CC1` the value was 2.51 µM [rising, partial curve]; for `Cc1ccccc1C(=O)N1CCN(CCc2ccccn2)CC1`, 7.94 µM [falling, full curve, poor fit]; for `c1ccc2[nH]c(NC3=NCCC3)nc2c1`, 39.8 µM [rising, single point] [measured here: IkB-luc green channel].

These data come from PubChem BioAssay AID445 (National Center for Advancing Translational Sciences (NCATS), 2006).
